# At least one compound was matched to its structure with a doubt left.
# Tested on: rat liver
# Test: LC-MS metabolomics of liver from rats dosed with clofibrate
# Assay type: in vivo
# Conditions: LCMS, 50 mg/kg/d for 14 days, 6 H after administration
# Experimental: In one embodiment, the hepatotoxicant is clofibrate. Clofibrate or vehicle is administered orally (0, 50, 250 mg/kg/d) to groups of 6 rats and serum and livers are collected 6 and 24 h after either a single or 14 daily doses. Global biochemical profiles are determined by LC-MS and GC-MS and components highly perturbed by clofibrate exposure are identified by the methods described above. […] Rats (6 per group) were dosed by gavage with vehicle, 50 or 250 mg/kg clofibrate per day for 1 (single dose) or 14 days (repeated dose). These groups are referred to as “day 1” and ‘day 14 (d 1 and d14).” Liver and serum were collected at 6 and 24 h post-dosing in the day 1 and day 14. In detail, a single dose of clofibrate or vehicle was administered by gavage (0, 50 and 250 mg/kg) to groups of 18 male Sprague Dawley rats at 11 wks age. Six rats per dose group were euthanized at 6 and 24 h post-dose. Serum (for metabolomics and alanine aminotransferase (ALT), and aspartate aminotransferase (AST)), liver lobes (for histology), and frozen liver and urine (for metabolomics) were collected. Six rats per dose group were placed in metabolism cages for urine collection at −24-0 h, 0-6 h, 6-24 h and 24-48 h. These rats were removed from metabolism cages at 48 h post-dose, for blood and liver collection. The detailed study design is set forth in Chart 1. […]
smiles,measurement,value
"CCOC(=O)C(C)(C)Oc1ccc(Cl)cc1 [Clofibrate, ethyl-p-chloro-phenoxyisobutyrate]",Uracil fold change relative to control,−1.1-−3.5
